Assay results as given in patent US9309314B2 (AGENCY FOR SCIENCE, TECHNOLOGY AND RESEARCH (A*STAR), priority 2013, dated 2016).

Assay: peptide synthesis
Settings: whole synthesis, one disulfide bridge, sequence written open

QRPVNLTMRRKLRKHNCLQRRCMPLHSRVPFP
purity (crude or final not stated): 98%

End groups of sequences in plain letters are not given here.
